Results are given in words; binding and its absence hold for the method and conditions named. In cells and extracts the contact can be indirect. Binding calls can cover weak binding; strength is not graded here.

In this assay the target is T1, human Tspan-8·mScarlet (in INS-1 cells) (human) (UniProt P19075).
T1 sequence: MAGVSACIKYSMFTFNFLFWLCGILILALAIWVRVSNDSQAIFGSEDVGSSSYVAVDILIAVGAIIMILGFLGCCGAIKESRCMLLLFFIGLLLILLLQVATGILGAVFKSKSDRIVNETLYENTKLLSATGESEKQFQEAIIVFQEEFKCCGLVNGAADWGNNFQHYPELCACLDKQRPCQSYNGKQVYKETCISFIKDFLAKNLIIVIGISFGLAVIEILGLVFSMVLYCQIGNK
Put plainly: co-IP; RFP immunoprecipitation from lysates of INS-1 cells over expressing hTspan-8·mScarlet; western blot; WT INS-1 cells as control.

With “syntaxin-1 (endogenous in INS-1 cells) (rat (endogenous in INS-1))”, the binding result was “binds”.

These data come from PMC10287693.
